The supplement of paper PMC12067093, “Discovery and optimisation of a covalent ligand for TRIM25 and its application to targeted protein ubiquitination” (Chemical Science, 2025)
The list shows a part of the results.

By UniProt entry, the sequences of proteins in these tests, tags left out. Where a name states a change or a piece, a line headed by the entry shows the natural chain unless it says otherwise.
UniProt P51970, whole entry, looked up: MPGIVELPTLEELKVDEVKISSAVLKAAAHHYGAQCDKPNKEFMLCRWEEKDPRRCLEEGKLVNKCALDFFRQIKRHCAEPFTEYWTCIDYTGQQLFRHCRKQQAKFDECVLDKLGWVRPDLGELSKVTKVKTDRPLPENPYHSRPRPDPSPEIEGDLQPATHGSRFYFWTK
UniProt Q86X76: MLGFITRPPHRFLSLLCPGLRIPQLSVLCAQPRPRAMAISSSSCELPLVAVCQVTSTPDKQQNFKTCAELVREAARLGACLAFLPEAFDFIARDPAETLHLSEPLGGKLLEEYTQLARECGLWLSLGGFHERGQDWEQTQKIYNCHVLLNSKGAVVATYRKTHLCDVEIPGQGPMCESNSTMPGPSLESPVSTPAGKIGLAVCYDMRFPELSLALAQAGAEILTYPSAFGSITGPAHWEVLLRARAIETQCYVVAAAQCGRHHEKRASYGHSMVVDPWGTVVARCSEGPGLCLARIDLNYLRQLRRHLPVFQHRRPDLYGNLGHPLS
UniProt Q9Y221: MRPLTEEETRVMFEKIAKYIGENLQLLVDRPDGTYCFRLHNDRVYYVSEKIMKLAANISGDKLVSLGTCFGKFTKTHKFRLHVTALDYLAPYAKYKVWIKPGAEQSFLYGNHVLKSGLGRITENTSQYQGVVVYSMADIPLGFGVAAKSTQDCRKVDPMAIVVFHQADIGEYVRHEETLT
UniProt O75376, whole entry, looked up: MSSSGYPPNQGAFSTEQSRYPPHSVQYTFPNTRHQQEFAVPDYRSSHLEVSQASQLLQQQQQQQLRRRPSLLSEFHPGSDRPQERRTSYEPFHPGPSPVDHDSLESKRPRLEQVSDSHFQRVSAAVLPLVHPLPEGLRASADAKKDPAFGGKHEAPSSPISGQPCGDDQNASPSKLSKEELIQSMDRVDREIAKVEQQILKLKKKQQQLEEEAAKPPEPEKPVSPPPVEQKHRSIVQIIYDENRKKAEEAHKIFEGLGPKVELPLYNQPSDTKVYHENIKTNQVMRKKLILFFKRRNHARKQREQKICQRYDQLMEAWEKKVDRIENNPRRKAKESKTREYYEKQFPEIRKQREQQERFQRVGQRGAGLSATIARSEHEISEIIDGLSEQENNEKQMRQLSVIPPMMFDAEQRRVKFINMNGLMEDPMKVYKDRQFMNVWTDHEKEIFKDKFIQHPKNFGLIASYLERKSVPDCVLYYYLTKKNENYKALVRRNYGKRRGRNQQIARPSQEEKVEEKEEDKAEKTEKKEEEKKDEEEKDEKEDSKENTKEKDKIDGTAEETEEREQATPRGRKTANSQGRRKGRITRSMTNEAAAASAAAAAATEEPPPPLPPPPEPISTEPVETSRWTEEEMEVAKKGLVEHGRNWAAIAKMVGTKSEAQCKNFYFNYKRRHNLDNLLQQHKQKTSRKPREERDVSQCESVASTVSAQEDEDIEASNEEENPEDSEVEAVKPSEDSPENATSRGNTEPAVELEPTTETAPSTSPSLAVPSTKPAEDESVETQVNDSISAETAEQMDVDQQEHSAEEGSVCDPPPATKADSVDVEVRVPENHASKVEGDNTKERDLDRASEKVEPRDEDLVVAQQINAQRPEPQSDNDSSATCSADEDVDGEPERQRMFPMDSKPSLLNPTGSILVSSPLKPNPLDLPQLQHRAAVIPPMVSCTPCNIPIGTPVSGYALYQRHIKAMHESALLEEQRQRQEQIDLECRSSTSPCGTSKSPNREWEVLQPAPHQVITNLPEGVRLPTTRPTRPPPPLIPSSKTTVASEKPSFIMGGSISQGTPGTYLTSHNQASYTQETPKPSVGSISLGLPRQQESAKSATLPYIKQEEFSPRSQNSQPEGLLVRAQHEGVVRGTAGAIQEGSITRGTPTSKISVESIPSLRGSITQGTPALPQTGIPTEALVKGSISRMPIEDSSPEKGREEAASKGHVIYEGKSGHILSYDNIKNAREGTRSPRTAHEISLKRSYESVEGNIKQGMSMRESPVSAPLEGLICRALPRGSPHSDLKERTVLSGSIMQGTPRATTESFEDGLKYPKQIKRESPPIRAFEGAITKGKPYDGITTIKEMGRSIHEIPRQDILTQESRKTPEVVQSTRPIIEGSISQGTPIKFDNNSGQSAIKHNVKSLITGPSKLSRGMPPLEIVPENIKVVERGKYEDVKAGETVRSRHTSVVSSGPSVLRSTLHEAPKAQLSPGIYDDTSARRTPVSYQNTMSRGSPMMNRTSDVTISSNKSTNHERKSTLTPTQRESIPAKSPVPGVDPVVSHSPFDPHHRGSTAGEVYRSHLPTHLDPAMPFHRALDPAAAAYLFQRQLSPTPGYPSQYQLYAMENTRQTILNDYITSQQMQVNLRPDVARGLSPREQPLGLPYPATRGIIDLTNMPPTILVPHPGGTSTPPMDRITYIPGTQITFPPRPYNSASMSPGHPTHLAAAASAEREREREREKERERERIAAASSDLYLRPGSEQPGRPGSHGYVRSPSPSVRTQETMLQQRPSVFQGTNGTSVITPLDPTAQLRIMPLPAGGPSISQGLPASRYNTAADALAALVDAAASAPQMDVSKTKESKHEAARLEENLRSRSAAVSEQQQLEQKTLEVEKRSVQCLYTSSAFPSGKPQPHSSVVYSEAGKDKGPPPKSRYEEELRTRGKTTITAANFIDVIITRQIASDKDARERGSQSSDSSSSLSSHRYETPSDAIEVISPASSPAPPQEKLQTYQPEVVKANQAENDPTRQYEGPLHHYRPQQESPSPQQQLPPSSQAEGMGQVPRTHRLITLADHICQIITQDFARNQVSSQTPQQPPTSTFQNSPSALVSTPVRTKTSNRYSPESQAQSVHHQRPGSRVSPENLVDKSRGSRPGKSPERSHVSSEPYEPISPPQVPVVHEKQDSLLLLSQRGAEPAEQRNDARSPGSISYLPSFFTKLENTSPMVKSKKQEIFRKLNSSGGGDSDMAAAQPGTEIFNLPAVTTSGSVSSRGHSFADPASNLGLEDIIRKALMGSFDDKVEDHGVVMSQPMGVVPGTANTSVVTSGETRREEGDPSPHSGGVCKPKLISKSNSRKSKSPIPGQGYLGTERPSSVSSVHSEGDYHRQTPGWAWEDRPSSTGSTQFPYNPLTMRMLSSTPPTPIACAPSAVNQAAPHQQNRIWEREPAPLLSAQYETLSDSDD
UniProt Q9HCD5: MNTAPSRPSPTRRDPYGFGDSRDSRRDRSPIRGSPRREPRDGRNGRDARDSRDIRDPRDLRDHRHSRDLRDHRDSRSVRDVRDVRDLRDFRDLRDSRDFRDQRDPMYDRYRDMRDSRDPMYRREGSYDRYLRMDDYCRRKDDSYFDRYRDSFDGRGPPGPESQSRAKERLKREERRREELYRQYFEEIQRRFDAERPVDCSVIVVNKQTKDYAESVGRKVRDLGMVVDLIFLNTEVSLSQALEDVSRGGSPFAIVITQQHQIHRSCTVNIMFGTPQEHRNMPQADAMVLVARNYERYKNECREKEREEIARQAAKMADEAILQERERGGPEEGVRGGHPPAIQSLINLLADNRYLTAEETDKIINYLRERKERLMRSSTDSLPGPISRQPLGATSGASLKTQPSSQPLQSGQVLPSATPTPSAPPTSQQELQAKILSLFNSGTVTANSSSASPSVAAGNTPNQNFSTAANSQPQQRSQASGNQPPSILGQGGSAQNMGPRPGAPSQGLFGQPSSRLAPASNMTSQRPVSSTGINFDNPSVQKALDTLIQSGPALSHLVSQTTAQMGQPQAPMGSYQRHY
UniProt P30414: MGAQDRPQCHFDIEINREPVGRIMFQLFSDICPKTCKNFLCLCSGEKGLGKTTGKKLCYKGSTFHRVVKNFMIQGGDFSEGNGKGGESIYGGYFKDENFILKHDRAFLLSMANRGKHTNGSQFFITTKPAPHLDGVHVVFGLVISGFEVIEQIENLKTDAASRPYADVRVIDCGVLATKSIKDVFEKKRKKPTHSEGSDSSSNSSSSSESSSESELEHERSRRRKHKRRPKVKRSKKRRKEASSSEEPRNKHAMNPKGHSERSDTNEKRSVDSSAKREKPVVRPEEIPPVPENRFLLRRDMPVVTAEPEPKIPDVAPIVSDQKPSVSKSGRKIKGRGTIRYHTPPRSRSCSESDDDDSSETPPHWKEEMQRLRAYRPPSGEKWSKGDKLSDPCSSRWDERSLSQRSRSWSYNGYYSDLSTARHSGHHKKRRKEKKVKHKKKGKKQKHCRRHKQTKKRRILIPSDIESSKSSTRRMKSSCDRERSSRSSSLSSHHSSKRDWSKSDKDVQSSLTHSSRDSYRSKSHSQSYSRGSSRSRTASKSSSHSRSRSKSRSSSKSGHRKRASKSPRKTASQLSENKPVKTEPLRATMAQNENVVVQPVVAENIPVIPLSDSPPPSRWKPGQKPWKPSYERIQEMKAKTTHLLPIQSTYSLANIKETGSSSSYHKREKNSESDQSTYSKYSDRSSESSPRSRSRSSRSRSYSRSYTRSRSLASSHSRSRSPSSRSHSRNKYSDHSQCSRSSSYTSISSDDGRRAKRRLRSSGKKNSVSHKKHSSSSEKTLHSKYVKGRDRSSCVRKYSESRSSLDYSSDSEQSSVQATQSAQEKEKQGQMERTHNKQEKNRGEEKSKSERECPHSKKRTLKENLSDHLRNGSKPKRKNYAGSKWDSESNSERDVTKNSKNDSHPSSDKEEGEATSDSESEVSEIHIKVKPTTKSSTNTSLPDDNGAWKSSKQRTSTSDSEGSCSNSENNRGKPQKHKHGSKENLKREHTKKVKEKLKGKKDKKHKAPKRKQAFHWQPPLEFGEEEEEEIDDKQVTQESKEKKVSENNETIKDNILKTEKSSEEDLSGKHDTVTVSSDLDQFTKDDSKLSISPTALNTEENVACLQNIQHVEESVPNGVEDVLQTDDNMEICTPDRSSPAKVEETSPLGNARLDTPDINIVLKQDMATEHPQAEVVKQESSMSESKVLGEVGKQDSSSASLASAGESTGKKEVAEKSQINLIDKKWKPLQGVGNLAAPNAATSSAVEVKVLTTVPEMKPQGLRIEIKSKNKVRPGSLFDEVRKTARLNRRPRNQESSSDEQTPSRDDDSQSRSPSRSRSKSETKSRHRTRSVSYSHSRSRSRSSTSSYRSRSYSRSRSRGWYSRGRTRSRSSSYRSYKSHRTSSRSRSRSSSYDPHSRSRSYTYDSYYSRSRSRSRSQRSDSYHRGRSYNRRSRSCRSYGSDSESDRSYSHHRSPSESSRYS
UniProt Q8TDX7: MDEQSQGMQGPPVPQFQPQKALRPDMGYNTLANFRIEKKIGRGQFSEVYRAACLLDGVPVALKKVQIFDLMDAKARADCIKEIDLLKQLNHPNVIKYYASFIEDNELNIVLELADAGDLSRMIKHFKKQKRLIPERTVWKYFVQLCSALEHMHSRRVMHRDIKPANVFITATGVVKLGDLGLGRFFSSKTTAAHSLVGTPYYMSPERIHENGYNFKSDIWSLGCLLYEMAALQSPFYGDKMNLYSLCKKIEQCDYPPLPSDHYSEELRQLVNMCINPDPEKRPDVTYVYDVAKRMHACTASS
UniProt Q12986: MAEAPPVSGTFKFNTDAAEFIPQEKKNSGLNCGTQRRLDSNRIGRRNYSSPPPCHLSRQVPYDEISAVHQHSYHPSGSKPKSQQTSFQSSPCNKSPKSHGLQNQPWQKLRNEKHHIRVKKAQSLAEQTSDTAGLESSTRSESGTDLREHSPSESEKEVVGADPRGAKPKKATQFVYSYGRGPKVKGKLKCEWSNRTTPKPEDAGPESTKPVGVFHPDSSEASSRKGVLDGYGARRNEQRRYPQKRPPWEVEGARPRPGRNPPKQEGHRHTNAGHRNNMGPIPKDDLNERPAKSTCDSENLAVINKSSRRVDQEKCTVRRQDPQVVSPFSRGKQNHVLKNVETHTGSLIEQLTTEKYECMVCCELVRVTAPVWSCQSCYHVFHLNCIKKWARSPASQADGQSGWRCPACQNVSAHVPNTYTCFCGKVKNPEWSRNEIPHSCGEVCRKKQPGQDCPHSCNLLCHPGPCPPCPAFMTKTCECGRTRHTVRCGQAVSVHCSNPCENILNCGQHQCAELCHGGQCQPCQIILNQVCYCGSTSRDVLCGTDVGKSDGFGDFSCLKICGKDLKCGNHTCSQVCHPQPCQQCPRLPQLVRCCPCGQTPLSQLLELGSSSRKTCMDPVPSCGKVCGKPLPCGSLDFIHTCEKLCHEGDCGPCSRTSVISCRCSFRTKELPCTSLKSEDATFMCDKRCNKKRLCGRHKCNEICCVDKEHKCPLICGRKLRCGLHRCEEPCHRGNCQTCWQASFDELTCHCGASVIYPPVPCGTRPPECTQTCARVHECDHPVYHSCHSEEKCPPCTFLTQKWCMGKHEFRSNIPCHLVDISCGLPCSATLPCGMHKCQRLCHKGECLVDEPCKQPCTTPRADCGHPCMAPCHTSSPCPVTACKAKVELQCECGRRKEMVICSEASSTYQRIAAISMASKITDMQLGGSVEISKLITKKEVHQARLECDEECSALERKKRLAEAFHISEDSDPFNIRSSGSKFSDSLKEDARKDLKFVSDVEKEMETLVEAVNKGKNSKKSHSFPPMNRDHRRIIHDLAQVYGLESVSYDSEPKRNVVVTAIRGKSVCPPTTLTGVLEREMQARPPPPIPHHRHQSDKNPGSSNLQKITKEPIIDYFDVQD

Compound: Cc1cc(ccc1-c1ccccc1)C(=O)N1CCCN(CC1)C(=O)CCl [compound 10]
Experiment: probe-labelled cysteine peptide fold change vs DMSO (competition) (log2 fold change); higher = less target engagement (more negative = stronger competition)
Settings: THP-1, incubation time: 4 h
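Further: competitive profiling in live THP-1 cells: cysteine peptides tagged with an iodoacetamide desthiobiotin (IA-DTB) probe, intensity after compound treatment relative to DMSO-treated cells.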

Row | Target | probe-labelled cysteine peptide fold change (10 µM) | probe-labelled cysteine peptide fold change (50 µM)
1 | NDUFA8_P51970_88_HCAEPFTEYWTCIDYTGQQLFR (UniProt P51970) | 0.342 | 0.0824
2 | NDC80_O14777_342_VELECETIK (UniProt O14777) | 0.11 | 0.192
3 | NIPBL_Q6KC79_2374_MSYQVQQAINTCLKDPVR (UniProt Q6KC79) | -0.126 | -0.561
4 | NCS1_P62166_38_DCPSGQLDAAGFQK (UniProt P62166) | 0.245 | 0.347
5 | NEK9_Q8TD19_506_EVYSWGCGEYGR (UniProt Q8TD19) | -0.0353 | -0.0285
6 | NFIC_P08651_163_AAQCGHPVLCVQPHHIGVAVK (UniProt P08651) | 0.0354 | -0.0269
7 | NIT1_Q86X76_120_ECGLWLSLGGFHER (UniProt Q86X76) | 0.13 | 0.14
8 | NCL_P19338_543_EALNSCNK (UniProt P19338) | 0.0894 | 0.244
9 | NIP7_Q9Y221_36_YIGENLQLLVDRPDGTYCFR (UniProt Q9Y221) | 0.0294 | 0.155
10 | NFKBIE_O00221_345_CLLEGRPEPGR (UniProt O00221) | 0.0527 | -0.143
11 | NCOR1_O75376_474_SVPDCVLYYYLTK (UniProt O75376) | 0.23 | 0.343
12 | NCOA5_Q9HCD5_200_FDAERPVDCSVIVVNK (UniProt Q9HCD5) | 0.149 | 0.263
13 | NCOR1_O75376_1274_ESPVSAPLEGLICR (UniProt O75376) | -0.229 | -0.626
14 | NCKAP5L_Q9HCH0_1076_NGLVGPLQGCGKPPGKPSSEPGRR (UniProt Q9HCH0) | -0.0916 | 0.00289
15 | NKTR_P30414_9_GAQDRPQCHFDIEINREPVGR (UniProt P30414) | 0.169 | 0.85
16 | NEK7_Q8TDX7_53_AACLLDGVPVALKK (UniProt Q8TDX7) | -0.0653 | -0.266
17 | NGLY1_Q96IV0_352_WLHCDACEDVCDKPLLYEIGWGK (UniProt Q96IV0) | 0.104 | 0.303
18 | NDUFA10_O95299_67_VITVDGNICTGK (UniProt O95299) | 0.00064 | 0.0884
19 | NFATC3_Q12968_358_LELCSDDQGSLSPAR (UniProt Q12968) | -0.212 | 0.0917
20 | NEK9_Q8TD19_487_VAGPEVLEPMQLNFFLSNPVEQVSCGDNHVVVLTR (UniProt Q8TD19) | 0.234 | -0.00579
21 | NF1_P21359_904_LLSLMVCNHEK (UniProt P21359) | -0.111 | -0.447
22 | NELFA_Q9H3P2_44_LCFHGLSSAVK (UniProt Q9H3P2) | -0.136 | 0.306

Single entries from the results shown.
NEK7_Q8TDX7_53_AACLLDGVPVALKK (UniProt Q8TDX7) – probe-labelled cysteine peptide fold change (50 µM): -0.266
NGLY1_Q96IV0_352_WLHCDACEDVCDKPLLYEIGWGK (UniProt Q96IV0) – probe-labelled cysteine peptide fold change (50 µM): 0.303
NCOA5_Q9HCD5_200_FDAERPVDCSVIVVNK (UniProt Q9HCD5) – probe-labelled cysteine peptide fold change (50 µM): 0.263
NKTR_P30414_9_GAQDRPQCHFDIEINREPVGR (UniProt P30414) – probe-labelled cysteine peptide fold change (10 µM): 0.169

Following part.

Row | Target | probe-labelled cysteine peptide fold change (10 µM) | probe-labelled cysteine peptide fold change (50 µM)
23 | NKRF_O15226_386_VFLQDHCLAEGYGTKK (UniProt O15226) | -0.0306 | -0.547
24 | NFATC2IP_Q8NCF5_332_LGVADIIDCVVLTSSPEATETSQQLQLR (UniProt Q8NCF5) | 0.0383 | 0.0833
25 | NELFCD_Q8IXH7_169_LAEAHPDCLMLNFTVK (UniProt Q8IXH7) | -0.0548 | 0.0649
26 | NIFK_Q9BYG3_118_LLECHFMPPEK (UniProt Q9BYG3) | -0.0155 | -0.0823
27 | NDUFA9_Q16795_86_CDKYDIMHLRPMGDLGQLLFLEWDAR (UniProt Q16795) | -0.11 | -0.494
28 | NIT1_Q86X76_292_CSEGPGLCLAR (UniProt Q86X76) | 0.217 | -0.0225
29 | NFX1_Q12986_572_CGNHTCSQVCHPQPCQQCPR (UniProt Q12986) | 0.172 | 0.183
30 | NFATC3_Q12968_6_TTANCGAHDELDFK (UniProt Q12968) | -0.185 | -0.196
31 | NDUFB11_Q9NX14_141_YREANGLPIMESNCFDPSK (UniProt Q9NX14) | -0.274 | -0.325
32 | NFX1_Q12986_362_YECMVCCELVR (UniProt Q12986) | 0.202 | -0.0121
33 | NF1_P21359_434_IDAVYCHSVELR (UniProt P21359) | -0.0794 | 0.0569
34 | NIN_Q8N4C6_1261_ENDCLQEELR (UniProt Q8N4C6) | -0.138 | 0.178
35 | NFKB2_Q00653_250_GGDEVYLLCDK (UniProt Q00653) | -0.0177 | 0.0572
36 | NIT1_Q86X76_203_IGLAVCYDMR (UniProt Q86X76) | -0.0753 | -0.95
37 | NGLY1_Q96IV0_286_EVEDHYCDACQFSNR (UniProt Q96IV0) | 0.08 | -0.0594
38 | NDOR1_Q9UHB4_486_VAQGQTGNFLFFGCR (UniProt Q9UHB4) | -0.0873 | -0.272
39 | NFIB_O00712_120_RIDCLR (UniProt O00712) | -0.191 | -0.0338
40 | NCKIPSD_Q9NZQ3_412_CYLEELLHILTDADPEVCKK (UniProt Q9NZQ3) | 0.0422 | -0.25
41 | NISCH_Q9Y2I1_436_ASEVCLDDTVTTEK (UniProt Q9Y2I1) | 0.05 | -0.322
42 | NHP2_Q9NX24_98_GIMVLAGDTLPIEVYCHLPVMCEDR (UniProt Q9NX24) | -0.00823 | 0.242
43 | NCKIPSD_Q9NZQ3_412+429_CYLEELLHILTDADPEVCKK (UniProt Q9NZQ3) | 0.0318 | -0.0786
